Data source: PubChem BioAssay AID652272 (Drosophila RNAi Screening Center, 2013)
Test: 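Genome-wide knock-down search for components of Hedgehog signalling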 (primary screen). Cell system: Drosophila clone 8 (Cl8) cells. Reagent: long dsRNA against Drosophila genes. Measured: 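Firefly light from a Hedgehog-responsive ptc promoter reporter and Renilla reference light, both read on a plate reader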. Direction: firefly Hh reporter signal: higher = more ptc reporter light; Renilla reference signal: higher = more Renilla control light. Hit rule: 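Called a hit if the two-replicate mean z-score lies below -2 or above +3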. Calls: active = hit: reporter lowered or raised; inactive = not a hit.
The screen tested about 21,000 reagents; shown is a random part of those with a known target gene and a result. Of all reagents, 503 (2.4%) are marked active. 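Raw plate light values, not normalised; calls rest on replicate z-scores that were not deposited; hits include reporter decreases as well as increases.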 Not given: the amount of reagent, the time to read-out.

After knock-down of RpS28a (Ribosomal protein S28a) [DRSC15064] the results were firefly Hh reporter signal, replicate 1 = 1.29e5; firefly Hh reporter signal, replicate 2 = 1.07e5; Renilla reference signal, replicate 1 = 5049; Renilla reference signal, replicate 2 = 3879; inactive.
After knock-down of zen (zerknullt) [DRSC12632] the results were firefly Hh reporter signal, replicate 1 = 72354; firefly Hh reporter signal, replicate 2 = 1.02e5; Renilla reference signal, replicate 1 = 2757; Renilla reference signal, replicate 2 = 2726; inactive.
With knock-down of Pkg21D (Protein kinase, cGMP-dependent at 21D) [DRSC00772], the record shows firefly Hh reporter signal, replicate 1 = 92826; firefly Hh reporter signal, replicate 2 = 97042; Renilla reference signal, replicate 1 = 4716; Renilla reference signal, replicate 2 = 4449; inactive.
Depletion of pon (partner of numb) [DRSC18823] gave: firefly Hh reporter signal, replicate 1 = 71168; firefly Hh reporter signal, replicate 2 = 1.88e5; Renilla reference signal, replicate 1 = 2361; Renilla reference signal, replicate 2 = 6978; inactive.
Ran [DRSC20364] showed firefly Hh reporter signal, replicate 1 = 33573; firefly Hh reporter signal, replicate 2 = 84800; Renilla reference signal, replicate 1 = 824; Renilla reference signal, replicate 2 = 4171; inactive.
For ssp (sunspot) [DRSC10252] the deposit lists firefly Hh reporter signal, replicate 1 = 1.31e5; firefly Hh reporter signal, replicate 2 = 69491; Renilla reference signal, replicate 1 = 5472; Renilla reference signal, replicate 2 = 3289; inactive.
Silencing of CG4210 [DRSC15551] resulted in: firefly Hh reporter signal, replicate 1 = 82417; firefly Hh reporter signal, replicate 2 = 83306; Renilla reference signal, replicate 1 = 3058; Renilla reference signal, replicate 2 = 2674; inactive.
Depletion of Jabba [DRSC06521] resulted in: firefly Hh reporter signal, replicate 1 = 1.04e5; firefly Hh reporter signal, replicate 2 = 78555; Renilla reference signal, replicate 1 = 4640; Renilla reference signal, replicate 2 = 3296; inactive.
Silencing of Ptp36E (Protein tyrosine phosphatase 36E) [DRSC03021] resulted in: firefly Hh reporter signal, replicate 1 = 2.05e5; firefly Hh reporter signal, replicate 2 = 73069; Renilla reference signal, replicate 1 = 4770; Renilla reference signal, replicate 2 = 4105; inactive.
After knock-down of ldbr (lariat debranching enzyme) [DRSC10933], the record shows firefly Hh reporter signal, replicate 1 = 1.02e5; firefly Hh reporter signal, replicate 2 = 58866; Renilla reference signal, replicate 1 = 4555; Renilla reference signal, replicate 2 = 2442; inactive.
Against Got1 (Glutamate oxaloacetate transaminase 1) [DRSC07177], the entry reads firefly Hh reporter signal, replicate 1 = 1.46e5; firefly Hh reporter signal, replicate 2 = 95212; Renilla reference signal, replicate 1 = 5430; Renilla reference signal, replicate 2 = 3498; inactive.
After knock-down of Atg2 (Autophagy-related 2) [DRSC08273], the screen gave firefly Hh reporter signal, replicate 1 = 1.17e5; firefly Hh reporter signal, replicate 2 = 75187; Renilla reference signal, replicate 1 = 5030; Renilla reference signal, replicate 2 = 2260; inactive.
After knock-down of Spn27A (Serpin 27A) [DRSC03608], the record shows firefly Hh reporter signal, replicate 1 = 92037; firefly Hh reporter signal, replicate 2 = 41056; Renilla reference signal, replicate 1 = 2461; Renilla reference signal, replicate 2 = 4203; inactive.
For Ist1 [DRSC09697], the entry reads firefly Hh reporter signal, replicate 1 = 84213; firefly Hh reporter signal, replicate 2 = 1.05e5; Renilla reference signal, replicate 1 = 3173; Renilla reference signal, replicate 2 = 3699; inactive.

An excerpt from above, limited to “firefly Hh reporter signal, replicate 1”.
Ran [DRSC20364]: 33573
ssp (sunspot) [DRSC10252]: 1.31e5

More reagents follow:
CG11726 [DRSC09858] gave firefly Hh reporter signal, replicate 1 = 56889; firefly Hh reporter signal, replicate 2 = 53578; firefly Hh reporter signal, replicate 3 = 48102; Renilla reference signal, replicate 1 = 5781; Renilla reference signal, replicate 2 = 3028; inactive.
For CG6937 [DRSC16140], the entry reads firefly Hh reporter signal, replicate 1 = 3.47e5; firefly Hh reporter signal, replicate 2 = 70403; Renilla reference signal, replicate 1 = 25169; Renilla reference signal, replicate 2 = 2778; active.
Knock-down of SoxN (SoxNeuro) [DRSC03440] came out at: firefly Hh reporter signal, replicate 1 = 1.10e5; firefly Hh reporter signal, replicate 2 = 5.05e5; firefly Hh reporter signal, replicate 3 = 65270; Renilla reference signal, replicate 1 = 2276; Renilla reference signal, replicate 2 = 28483; inactive.
With knock-down of Ugt303B3 (UDP-glycosyltransferase family 303 member B3) [DRSC14199], the record shows firefly Hh reporter signal, replicate 1 = 5.41e5; firefly Hh reporter signal, replicate 2 = 83147; Renilla reference signal, replicate 1 = 30202; Renilla reference signal, replicate 2 = 2469; inactive.
Syt4 (Synaptotagmin 4) [DRSC12606] gave firefly Hh reporter signal, replicate 1 = 71088; firefly Hh reporter signal, replicate 2 = 1.22e5; Renilla reference signal, replicate 1 = 3059; Renilla reference signal, replicate 2 = 3490; inactive.
Against Pgam5 (Phosphoglycerate mutase 5) [DRSC18551] the deposit lists firefly Hh reporter signal, replicate 1 = 1.36e5; firefly Hh reporter signal, replicate 2 = 1.01e5; Renilla reference signal, replicate 1 = 2960; Renilla reference signal, replicate 2 = 2898; inactive.
After knock-down of Takl1 (Tak1-like 1) [DRSC13443] the results were firefly Hh reporter signal, replicate 1 = 43648; firefly Hh reporter signal, replicate 2 = 1.92e5; Renilla reference signal, replicate 1 = 9473; Renilla reference signal, replicate 2 = 4316; inactive.
